Drawing on article PMC9413943, this text covers binding for two substances.

Sequences of proteins named here, by UniProt entry; tags and fusion partners are left off.
UniProt Q99497: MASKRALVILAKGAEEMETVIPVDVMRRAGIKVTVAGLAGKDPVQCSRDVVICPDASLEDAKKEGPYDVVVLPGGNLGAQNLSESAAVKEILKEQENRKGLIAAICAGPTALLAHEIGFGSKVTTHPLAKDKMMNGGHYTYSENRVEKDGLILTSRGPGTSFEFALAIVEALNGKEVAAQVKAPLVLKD
UniProt P11142: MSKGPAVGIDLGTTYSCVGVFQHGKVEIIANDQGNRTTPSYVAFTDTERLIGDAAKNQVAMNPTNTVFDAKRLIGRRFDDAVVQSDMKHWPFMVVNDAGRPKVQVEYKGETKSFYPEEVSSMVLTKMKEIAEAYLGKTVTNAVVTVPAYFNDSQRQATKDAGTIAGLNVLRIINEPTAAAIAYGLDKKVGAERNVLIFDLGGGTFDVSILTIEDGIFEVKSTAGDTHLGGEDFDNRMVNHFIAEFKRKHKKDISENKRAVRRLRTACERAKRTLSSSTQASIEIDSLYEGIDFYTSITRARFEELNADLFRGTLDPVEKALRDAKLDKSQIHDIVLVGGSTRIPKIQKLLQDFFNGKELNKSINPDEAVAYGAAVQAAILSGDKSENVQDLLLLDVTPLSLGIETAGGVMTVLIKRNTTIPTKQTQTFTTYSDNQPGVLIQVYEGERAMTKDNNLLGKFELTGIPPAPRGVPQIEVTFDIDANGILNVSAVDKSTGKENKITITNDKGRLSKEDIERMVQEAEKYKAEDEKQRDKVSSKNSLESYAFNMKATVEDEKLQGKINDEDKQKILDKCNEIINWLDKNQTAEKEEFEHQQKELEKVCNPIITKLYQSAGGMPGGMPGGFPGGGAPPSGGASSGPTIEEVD
UniProt Q7Z406: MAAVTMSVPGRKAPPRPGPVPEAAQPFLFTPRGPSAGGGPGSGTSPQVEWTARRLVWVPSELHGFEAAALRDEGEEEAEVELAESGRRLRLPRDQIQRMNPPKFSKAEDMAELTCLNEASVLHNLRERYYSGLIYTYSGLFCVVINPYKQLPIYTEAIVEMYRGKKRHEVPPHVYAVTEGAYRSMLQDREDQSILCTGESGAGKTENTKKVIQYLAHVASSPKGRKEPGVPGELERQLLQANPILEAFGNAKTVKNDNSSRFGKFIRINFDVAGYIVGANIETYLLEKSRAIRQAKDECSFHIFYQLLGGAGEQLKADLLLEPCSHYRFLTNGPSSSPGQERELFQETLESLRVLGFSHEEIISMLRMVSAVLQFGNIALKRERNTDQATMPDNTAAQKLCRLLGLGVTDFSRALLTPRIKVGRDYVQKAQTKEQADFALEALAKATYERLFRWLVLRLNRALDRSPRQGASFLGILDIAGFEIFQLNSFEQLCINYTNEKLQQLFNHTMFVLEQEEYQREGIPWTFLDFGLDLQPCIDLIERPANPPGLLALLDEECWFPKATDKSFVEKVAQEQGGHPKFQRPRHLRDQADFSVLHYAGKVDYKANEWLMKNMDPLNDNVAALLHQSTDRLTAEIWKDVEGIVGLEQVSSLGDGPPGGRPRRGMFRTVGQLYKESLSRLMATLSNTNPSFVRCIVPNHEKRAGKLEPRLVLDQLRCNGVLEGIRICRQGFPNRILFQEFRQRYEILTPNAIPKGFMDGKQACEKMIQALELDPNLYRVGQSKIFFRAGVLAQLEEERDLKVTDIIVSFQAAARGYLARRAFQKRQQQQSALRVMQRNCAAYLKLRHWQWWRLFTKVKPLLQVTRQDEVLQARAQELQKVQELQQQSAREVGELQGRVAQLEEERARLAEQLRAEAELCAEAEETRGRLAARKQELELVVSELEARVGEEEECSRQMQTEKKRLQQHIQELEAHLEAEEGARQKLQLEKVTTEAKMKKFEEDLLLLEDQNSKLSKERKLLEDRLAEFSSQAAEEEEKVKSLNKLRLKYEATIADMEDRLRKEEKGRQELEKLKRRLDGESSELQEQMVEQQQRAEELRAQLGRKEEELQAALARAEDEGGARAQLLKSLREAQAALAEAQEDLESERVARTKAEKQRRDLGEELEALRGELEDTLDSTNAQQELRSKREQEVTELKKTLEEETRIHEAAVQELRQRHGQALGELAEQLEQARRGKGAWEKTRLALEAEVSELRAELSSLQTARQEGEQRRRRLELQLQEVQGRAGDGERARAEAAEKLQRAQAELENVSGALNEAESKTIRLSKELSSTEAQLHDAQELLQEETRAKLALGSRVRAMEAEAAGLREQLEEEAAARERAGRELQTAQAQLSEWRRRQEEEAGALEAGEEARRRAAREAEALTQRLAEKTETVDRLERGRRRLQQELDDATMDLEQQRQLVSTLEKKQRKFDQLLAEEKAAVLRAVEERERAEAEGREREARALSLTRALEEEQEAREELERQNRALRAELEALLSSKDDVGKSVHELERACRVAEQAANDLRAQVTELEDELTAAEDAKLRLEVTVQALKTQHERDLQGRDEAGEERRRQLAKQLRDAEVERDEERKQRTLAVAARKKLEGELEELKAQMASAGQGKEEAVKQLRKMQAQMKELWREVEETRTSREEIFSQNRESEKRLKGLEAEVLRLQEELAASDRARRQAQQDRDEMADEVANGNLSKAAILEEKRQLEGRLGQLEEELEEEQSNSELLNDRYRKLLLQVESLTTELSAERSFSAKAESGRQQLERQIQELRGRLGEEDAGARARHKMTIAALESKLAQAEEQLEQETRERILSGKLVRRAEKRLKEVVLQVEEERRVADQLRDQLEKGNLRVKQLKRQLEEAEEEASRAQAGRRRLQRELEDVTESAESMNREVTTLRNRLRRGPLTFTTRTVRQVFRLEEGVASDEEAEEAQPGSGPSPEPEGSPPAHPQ

No constants are given. Whether binding was seen depends on the method and setting. In cells and extracts the contact can be indirect. Here binding means that the protein was enriched with, or labelled near, the bait; the list need not be complete.

The assay addresses DJ-1/PARK7 (Parkinson disease protein 7), precipitated by the DJ-1 antibody from K150 cells (human (endogenous in KYSE-150)) (UniProt Q99497). Description: affinity purification with mass spectrometry; K150 cell samples co-immunoprecipitated with the DJ-1 antibody, LC-MS/MS; named hits chosen by overlap with RNA-seq DEGs.

On to “HSC70/HSPA8 (Heat shock cognate 71 kDa protein) (from UniProt P11142 1-646)”, for which the binding result is reported as “binds”.
Next, MYH14 (from UniProt Q7Z406 1-1995): “binds”.
